Measured values as given in patent publication US11351142B2, “Composition and method for treating neuronal ceroid lipofuscinosis” (Rush University Medical Center, priority 2012, dated 2022).
At least one structure is not confirmed: it was looked up by name or label, or the drawing left a doubt. Some of these results come from one statement about several compounds together.

Assays:
Type in all cases: cell-based
TPP1 = assay: Western blot and densitometric analysis of TPP1 in mouse primary astrocytes; details: for increase in TPP1 protein level (Western blot): mouse primary astrocytes, 25 μM gemfibrozil and 10 μM fenofibrate treatment for 24 hrs; for induction of TPP1 (immunoblot): RA (0.5 μM) and combination of gemfibrozil (10 μM) and RA (0.5 μM)
Procedure: Astroglia were isolated from mixed glial cultures as described (17,18) according to the procedure of Giulian and Baker (19). Briefly, on day 9, the mixed glial cultures were washed three times with Dulbecco's modified Eagle's medium/F-12 and subjected to shaking at 240 rpm for 2 h at 37° C. on a rotary shaker to remove microglia. After 2 days, the shaking was repeated for 24 h for the removal of oligodendroglia and to ensure the complete removal of all nonastroglial cells. The attached cells were seeded onto new plates for further studies.
Western blotting was conducted as described earlier (27,28) with modifications. Briefly, cells were scraped in double-distilled H20 and sodium dodecyl sulfate (SDS), electrophoresed on NuPAGE® Novex® 4-12% Bis-Tris gels (Invitrogen) and proteins transferred onto a nitrocellulose membrane (Bio-Rad) using the Thermo-Pierce Fast Semi-Dry Blotter. The membrane was then washed for 15 min in TBS plus Tween 20 (TBST) and blocked for 1 hr in TBST containing BSA. Next, membranes were incubated overnight at 4° C. under shaking conditions with the following 1° antibodies; TPP1 (1:250, Santa Cruz), β-actin (1:800; Abcam, Cambridge, Mass. The next day, membranes were washed in TBST for 1 hr, incubated in 2° antibodies against 1° antibody hosts (all 1:10,000; Jackson ImmunoResearch) for 1 hr at room temperature, washed for one more hour and visualized under the Odyssey® Infrared Imaging System (Li-COR, Lincoln, Nebr.).
Protein blots were analyzed using ImageJ (NIH, Bethesda, Md.) and bands were normalized to their respective β-actin loading controls. Data are representative of the average fold change with respect to control for three independent experiments.

[1] = system: tripeptidyl peptidase 1 (TPP1); assay: Double-labeling for TPP1 and β-tubulin (FIG. 11); details: 25 μM gemfibrozil and 10 μM fenofibrate, 24 hours
Description: (§1) DAPI was used to visualize nuclei. Results represent 3 independent experiments.

primary human astrocytes = assay: LysoTracker labeling of lysosomes in primary human astrocytes; details: 25 μM gemfibrozil and 10 μM fenofibrate, 24 hrs
Description: as §1

[2] = system: lysosome-associated membrane protein 2 (LAMP2); assay: Double-labeling for LAMP2 and β-tubulin in human neurons; details: 25 μM gemfibrozil and 10 μM fenofibrate, 24 hours
Description: as §1

Cln2 mRNA = Cln2 mRNA expression by semi-quantitative RT-PCR and real-time PCR in mouse primary astrocytes
Procedure: Astroglia were isolated from mixed glial cultures as described (17,18) according to the procedure of Giulian and Baker (19). Briefly, on day 9, the mixed glial cultures were washed three times with Dulbecco's modified Eagle's medium/F-12 and subjected to shaking at 240 rpm for 2 h at 37° C. on a rotary shaker to remove microglia. After 2 days, the shaking was repeated for 24 h for the removal of oligodendroglia and to ensure the complete removal of all nonastroglial cells. The attached cells were seeded onto new plates for further studies. Total RNA was isolated from mouse primary astrocytes and human primary astrocytes using RNA-Easy Qiagen (Valencia, Calif.) kit following manufactures protocol. Semi-quantitative RT-PCR was carried out as described earlier (24) using oligo (dT) 12-18 as primer and moloney murine leukemia virus reverse transcriptase (MMLV-RT, Invitrogen) in a 20 μl reaction mixture. The resulting cDNA was appropriately amplified using Promega Master Mix (Madison, Wis.) and the following primers (Invitrogen) for murine genes: The mRNA quantification was performed using the ABI-Prism7700 sequence detection system (Applied Biosystems, Foster City, Calif.) using iTaq™ Fast Supermix With ROX (Bio-Rad, Hercules, Calif.) and the following 6-FAM/ZEN/IBFQ-labeled primers for murine genes: Cln2 and Gapdh (Integrated DNA Technologies Coralville, Iowa). […]

primary human neurons = assay: LysoTracker labeling of lysosomes in primary human neurons; details: 25 μM gemfibrozil and 10 μM fenofibrate, 24 hours
Description: as §1

Structure (SMILES)	increase in TPP1 levels (immunoblot, densitometric analysis) (TPP1; PPARβ−/− astrocytes, 24 hrs)	increase in TPP1 levels (immunoblot, densitometric analysis) (TPP1; WT astrocytes, 24 hrs)	increase in TPP1 protein level (Western blot) (TPP1)	induction of TPP1 (immunoblot) (TPP1; PPARβ−/− astrocytes)	induction of TPP1 (immunoblot) (TPP1; WT astrocytes)	lysosomal marker protein TPP1 (double-labeling) [1]	lysosomal proliferation (LysoTracker) (primary human astrocytes)	LAMP2 (double-labeling) [2]	Cln2 mRNA expression (Cln2 mRNA; PPARα−/− astrocytes, different concentrations, 24 hrs)	Cln2 mRNA expression in presence of PPARγ antagonist (Cln2 mRNA; WT astrocytes pre-treated with GW9662 for 30 min)	lysosomal proliferation (LysoTracker) (primary human neurons)	TPP1 levels (immunoblot, densitometric analysis) (TPP1; PPARα−/− astrocytes, 24 hrs)
Cc1ccc(C)c(OCCCC(C)(C)C(=O)O)c1 [gemfibrozil]	4-5 fold	4-5 fold	3-4 fold	–	–	–	–	–	–	–	–	–
CC1=C(/C=C/C(C)=C/C=C/C(C)=C/C(=O)O)C(C)(C)CCC1 [RA, all-trans retinoic acid]	–	–	–	5-6 fold	5-6 fold	–	–	–	–	–	–	–
CC(C)OC(=O)C(C)(C)Oc1ccc(C(=O)c2ccc(Cl)cc2)cc1 [fenofibrate]	4-5 fold	4-5 fold	3-4 fold	–	–	upregulation	upregulation	upregulation	little or no effect	increased expression	upregulation	no significant increase
